Source: patent US20100057368A1, “Biological Systems Analysis” (priority 2004, published 2010)
“Also recorded” adds a separate entry of the source.

Test system: high cholesterol diet, ApoE*3-Leiden mouse model of atherosclerosis
Assay: Effects on plasma lipoprotein profiles in the high cholesterol diet ApoE*3-Leiden mouse model of atherosclerosis (FIG. 3)
Format: in vivo
From the text: FIG. 3 is a graph of the effects of atorvastatin and BGM 25136 alone and in combination on plasma lipoprotein profiles in the high cholesterol diet, ApoE*3-Leiden mouse model of atherosclerosis. […] See Delsing et al. for methods.
The essential elements for combination drug discovery guided by system response profiles are knowledge of SRPs for many human diseases, the availability of SRP-qualified animal models and SRPs for compounds in control animals. The potential benefits of such an approach is exemplified in FIG. 3 for a study performed with hypolipidemic drugs in monotherapy and combined therapy on the regression of atherosclerosis in the ApoE*3-Leiden transgenic mouse.

For CC(C)c1c(C(=O)Nc2ccccc2)c(-c2ccccc2)c(-c2ccc(F)cc2)n1CC[C@@H](O)C[C@@H](O)CC(=O)O [atorvastatin], the “cholesterol across all lipoprotein particle categories (plasma lipoprotein profile)” value was “overall lowering of the cholesterol levels; also recorded: lower cholesterol across all particle categories”.
